# About 750 (4.2%) of roughly 18,000 compounds were called active. The shares of active, inactive and inconclusive entries below differ from those in the screen. Calls come from the whole dose curve; tested in HEK293 cells. Where the call is inconclusive, the potency comes from a doubtful curve fit.
# Test: qHTS for Inhibitors of binding or entry into cells for Lassa Virus
# Conditions: Lassa virus pseudotyped entry inhibition, cell-based qHTS; activity change, negative = inhibition: at 49.2 µM (top of the series) unless noted
# % is set by controls: 0 for no effect and ±100 for the full control effect; potency is the fitted concentration of half-maximal effect.
Compound,Potency,"activity change, negative = inhibition"
O=C(Nc1ccc(Oc2ccc3nc(NC(=O)c4ccco4)[nH]c3c2)cc1)Nc1cc(C(F)(F)F)ccc1F,"inconclusive: 7.91 µM [inhibitor, full curve, poor fit]",
CC1=C(C(=O)OCCN(Cc2ccccc2)c2ccccc2)C(c2cccc([N+](=O)[O-])c2)C(P2(=O)OCC(C)(C)CO2)=C(C)N1 (stereo unspecified),"inconclusive: 22.4 µM [inhibitor, partial curve]",
CC(CCc1ccc(O)cc1)NCCc1ccc(O)c(O)c1 (stereo unspecified),"inconclusive: 35.5 µM [inhibitor, single point]",
CC(C)C[C@H]1COc2c(Cl)cccc2S(=O)(=O)N1Cc1ccc(Cl)cc1,,inconclusive: -13.7% [inhibitor]
Cc1ccc(NC(=O)c2ccoc2)cc1-c1ccc(C(=O)NCC2CC2)cc1,"inconclusive: 3.15 µM [inhibitor, partial curve, poor fit]",
CCOc1nc2cccc(C(=O)OC(C)OC(=O)OC3CCCCC3)c2n1Cc1ccc(-c2ccccc2-c2nn[nH]n2)cc1 (stereo unspecified),"inconclusive: 11.2 µM [inhibitor, partial curve]",
CCOC(=O)N1CCN(Cc2ccc3c(c2)CN(C(=O)c2cc(-c4ccccc4)on2)CCO3)CC1,"inconclusive: 17.8 µM [inhibitor, partial curve]",
CC1CCN(CCCC(=O)c2ccc(F)cc2)CC1,,inactive: -2.61%
CCOC(=O)C1C/C(=C\C(C)=O)c2cccc(C(F)(F)F)c2O1 (stereo unspecified),,inactive: 7.88%
O=C(c1cccc(F)c1)N(Cc1cc2cc3c(cc2nc1N1CCOCC1)CCC3)CC1CCCO1 (stereo unspecified),,inactive: -0.275%
CC1(C)CC(=O)C2=C(C1)O[C@@]1(CCCCN3C(=O)c4ccccc4C3=O)Cc3c(ccc4ccccc34)[C@H]2O1,,inactive: -4.01% [at 8.59 µM]
COc1cc(OC)c(CN2CCOc3ccc(CN4CCC(O)CC4)cc3C2)c(OC)c1,"inconclusive: 15.8 µM [inhibitor, single point]",
C=CCNC(=O)N1C2=NC(C(=O)OC)=C(C(=O)OC)[C@@H]3N(C)c4ccccc4[C@]23C[C@H]1CO,,inactive: 3.93% [at 8.59 µM]
CC(CCC(=O)O)C1CCC2C3CC[C@@H]4CCCC[C@@]4(C)C3CC[C@@]12C (stereo partly specified),"inconclusive: 5.01 µM [inhibitor, partial curve, poor fit]",
CC(C)c1onc(-c2c(Cl)cccc2Cl)c1COc1ccc(/C=C/c2cccc(C(=O)O)c2)c(Cl)c1,"inconclusive: 35.5 µM [inhibitor, single point]",
COc1cccc(CN(C)C(=O)c2cnn(-c3ncc4c(n3)-c3ccccc3CCC4)c2C)c1,"inconclusive: 35.5 µM [inhibitor, partial curve, poor fit]",

# Reprinted at random: two compounds from above
Compound,Potency,"activity change, negative = inhibition"
CC1(C)CC(=O)C2=C(C1)O[C@@]1(CCCCN3C(=O)c4ccccc4C3=O)Cc3c(ccc4ccccc34)[C@H]2O1,,inactive: -4.01% [at 8.59 µM]
CC(C)C[C@H]1COc2c(Cl)cccc2S(=O)(=O)N1Cc1ccc(Cl)cc1,,inconclusive: -13.7% [inhibitor]

# From PubChem BioAssay AID720533 (National Center for Advancing Translational Sciences (NCATS), 2013)
